Laboratory results as given in paper PMC12487280.
Like-named read-outs stand apart in the source and are kept apart here. These are yes or no findings as the source states them, for the method shown. Binding seen in cells or lysates may run through a third protein. Some results given as binding are weak or reduced against the parent protein; the word gives no strength. For some assays here: Where a sequence is shown, tags or fusion partners need not be part of it. One block for each molecule: values may come before it.

Amino acid sequences for entries named in this document (tags omitted). A change or cut given only in a name is not applied to a line headed by its entry. Chains listed by the source or under a name are the forms on record and can include a tag or linker. Residues count along the entry.
UniProt Q14157: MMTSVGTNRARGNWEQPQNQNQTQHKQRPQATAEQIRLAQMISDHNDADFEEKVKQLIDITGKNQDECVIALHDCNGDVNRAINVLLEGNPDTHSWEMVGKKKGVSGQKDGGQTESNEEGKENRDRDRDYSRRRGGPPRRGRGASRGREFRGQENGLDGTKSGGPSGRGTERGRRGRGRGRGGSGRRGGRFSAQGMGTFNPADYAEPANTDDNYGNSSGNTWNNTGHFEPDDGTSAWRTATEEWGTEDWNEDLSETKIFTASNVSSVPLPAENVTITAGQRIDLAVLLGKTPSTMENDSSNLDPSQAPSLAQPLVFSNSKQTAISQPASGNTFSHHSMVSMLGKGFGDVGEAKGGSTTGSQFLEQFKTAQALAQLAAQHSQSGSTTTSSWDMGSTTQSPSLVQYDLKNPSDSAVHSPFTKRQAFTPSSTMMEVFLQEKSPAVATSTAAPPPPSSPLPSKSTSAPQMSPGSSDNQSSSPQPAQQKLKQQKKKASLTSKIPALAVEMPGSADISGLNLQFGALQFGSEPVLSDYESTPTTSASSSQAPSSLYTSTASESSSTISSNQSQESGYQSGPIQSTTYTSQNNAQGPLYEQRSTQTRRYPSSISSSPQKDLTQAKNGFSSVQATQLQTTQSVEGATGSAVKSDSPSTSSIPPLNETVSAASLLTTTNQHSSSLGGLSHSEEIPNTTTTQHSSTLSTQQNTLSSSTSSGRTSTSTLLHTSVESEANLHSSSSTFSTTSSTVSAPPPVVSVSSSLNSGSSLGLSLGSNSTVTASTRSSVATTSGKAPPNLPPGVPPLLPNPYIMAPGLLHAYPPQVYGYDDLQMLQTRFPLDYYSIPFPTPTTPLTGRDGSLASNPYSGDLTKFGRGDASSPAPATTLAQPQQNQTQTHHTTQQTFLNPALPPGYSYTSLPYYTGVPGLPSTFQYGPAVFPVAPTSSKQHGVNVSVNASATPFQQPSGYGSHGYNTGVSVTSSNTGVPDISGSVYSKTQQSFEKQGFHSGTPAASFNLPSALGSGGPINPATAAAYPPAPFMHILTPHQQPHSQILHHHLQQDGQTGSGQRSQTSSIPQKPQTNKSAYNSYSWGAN
Flag-tagged UBAP2L N-terminal sequence (amino acids 1-100): residues 1-100 of Q14157
UniProt O94972: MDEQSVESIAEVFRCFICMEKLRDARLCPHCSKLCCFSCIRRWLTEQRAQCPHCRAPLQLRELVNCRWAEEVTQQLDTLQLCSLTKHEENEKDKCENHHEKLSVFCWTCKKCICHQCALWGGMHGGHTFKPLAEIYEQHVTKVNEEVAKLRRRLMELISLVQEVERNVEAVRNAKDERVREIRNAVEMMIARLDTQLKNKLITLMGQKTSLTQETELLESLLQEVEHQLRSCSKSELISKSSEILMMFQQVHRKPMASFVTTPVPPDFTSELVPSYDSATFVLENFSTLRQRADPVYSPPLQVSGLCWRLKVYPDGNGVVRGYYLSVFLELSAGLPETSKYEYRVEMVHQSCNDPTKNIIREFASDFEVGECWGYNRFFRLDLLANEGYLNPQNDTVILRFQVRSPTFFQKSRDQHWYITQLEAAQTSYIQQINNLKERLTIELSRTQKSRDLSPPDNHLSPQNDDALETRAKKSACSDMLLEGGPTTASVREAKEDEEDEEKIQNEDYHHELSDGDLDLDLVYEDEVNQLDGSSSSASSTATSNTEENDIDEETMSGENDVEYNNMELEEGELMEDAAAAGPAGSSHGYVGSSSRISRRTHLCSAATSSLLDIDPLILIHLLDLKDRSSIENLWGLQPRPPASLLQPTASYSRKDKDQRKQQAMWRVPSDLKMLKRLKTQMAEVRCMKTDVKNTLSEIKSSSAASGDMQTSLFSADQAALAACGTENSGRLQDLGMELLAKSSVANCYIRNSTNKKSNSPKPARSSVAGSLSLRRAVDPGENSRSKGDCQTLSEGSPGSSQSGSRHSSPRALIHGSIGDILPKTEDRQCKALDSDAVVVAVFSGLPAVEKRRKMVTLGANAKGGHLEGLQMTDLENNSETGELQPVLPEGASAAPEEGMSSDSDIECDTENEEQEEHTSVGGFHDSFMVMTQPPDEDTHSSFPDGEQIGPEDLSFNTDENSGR

Tests used:
[1] = molecular target: T1, GST-OGT recombinant (UniProt O15294); experiment: pull-down; GST or GST-OGT from E. coli BL21 immobilized onto Anti-GST Magnetic Beads, incubated with cell lysates overnight at 4 °C; immunoblot; only the target purified
T1 sequence: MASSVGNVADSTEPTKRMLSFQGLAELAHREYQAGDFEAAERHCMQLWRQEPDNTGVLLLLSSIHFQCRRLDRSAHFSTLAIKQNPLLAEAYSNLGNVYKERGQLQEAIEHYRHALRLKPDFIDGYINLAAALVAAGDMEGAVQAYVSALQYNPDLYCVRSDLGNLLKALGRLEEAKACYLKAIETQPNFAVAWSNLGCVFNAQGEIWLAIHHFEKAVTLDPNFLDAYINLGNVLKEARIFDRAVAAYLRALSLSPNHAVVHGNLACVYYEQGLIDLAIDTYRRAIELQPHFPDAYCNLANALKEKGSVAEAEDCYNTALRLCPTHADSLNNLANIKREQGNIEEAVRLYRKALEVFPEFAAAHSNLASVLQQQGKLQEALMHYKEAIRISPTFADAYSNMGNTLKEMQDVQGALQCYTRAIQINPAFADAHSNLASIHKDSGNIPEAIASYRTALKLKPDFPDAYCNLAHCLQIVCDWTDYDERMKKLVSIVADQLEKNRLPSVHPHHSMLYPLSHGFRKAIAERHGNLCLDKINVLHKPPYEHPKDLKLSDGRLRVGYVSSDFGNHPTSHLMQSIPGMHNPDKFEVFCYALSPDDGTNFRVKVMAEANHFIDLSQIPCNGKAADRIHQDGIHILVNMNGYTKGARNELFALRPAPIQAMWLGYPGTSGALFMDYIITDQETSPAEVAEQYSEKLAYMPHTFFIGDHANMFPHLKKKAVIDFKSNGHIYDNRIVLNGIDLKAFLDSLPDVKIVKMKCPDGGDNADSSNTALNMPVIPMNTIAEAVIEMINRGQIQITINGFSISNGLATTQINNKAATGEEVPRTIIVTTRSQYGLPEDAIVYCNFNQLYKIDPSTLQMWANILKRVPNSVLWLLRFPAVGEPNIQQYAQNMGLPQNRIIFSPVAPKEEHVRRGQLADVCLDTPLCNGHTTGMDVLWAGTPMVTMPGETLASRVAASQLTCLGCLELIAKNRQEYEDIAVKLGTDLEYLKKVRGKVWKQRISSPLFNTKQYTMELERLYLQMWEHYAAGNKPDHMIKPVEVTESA

[2] = molecular target: T2, OGT (O-GlcNAc transferase), endogenous in ccRCC cells (human (endogenous in 786-O and Caki-1)) (UniProt O15294); experiment: co-IP; endogenous proteins in lysates of ccRCC cells (786-O, Caki-1); IP with specific antibodies or IgG control, immunoblot; for TRIM37-UBAP2L also cells with shCtrl, shOGT or shOGA
T2 sequence: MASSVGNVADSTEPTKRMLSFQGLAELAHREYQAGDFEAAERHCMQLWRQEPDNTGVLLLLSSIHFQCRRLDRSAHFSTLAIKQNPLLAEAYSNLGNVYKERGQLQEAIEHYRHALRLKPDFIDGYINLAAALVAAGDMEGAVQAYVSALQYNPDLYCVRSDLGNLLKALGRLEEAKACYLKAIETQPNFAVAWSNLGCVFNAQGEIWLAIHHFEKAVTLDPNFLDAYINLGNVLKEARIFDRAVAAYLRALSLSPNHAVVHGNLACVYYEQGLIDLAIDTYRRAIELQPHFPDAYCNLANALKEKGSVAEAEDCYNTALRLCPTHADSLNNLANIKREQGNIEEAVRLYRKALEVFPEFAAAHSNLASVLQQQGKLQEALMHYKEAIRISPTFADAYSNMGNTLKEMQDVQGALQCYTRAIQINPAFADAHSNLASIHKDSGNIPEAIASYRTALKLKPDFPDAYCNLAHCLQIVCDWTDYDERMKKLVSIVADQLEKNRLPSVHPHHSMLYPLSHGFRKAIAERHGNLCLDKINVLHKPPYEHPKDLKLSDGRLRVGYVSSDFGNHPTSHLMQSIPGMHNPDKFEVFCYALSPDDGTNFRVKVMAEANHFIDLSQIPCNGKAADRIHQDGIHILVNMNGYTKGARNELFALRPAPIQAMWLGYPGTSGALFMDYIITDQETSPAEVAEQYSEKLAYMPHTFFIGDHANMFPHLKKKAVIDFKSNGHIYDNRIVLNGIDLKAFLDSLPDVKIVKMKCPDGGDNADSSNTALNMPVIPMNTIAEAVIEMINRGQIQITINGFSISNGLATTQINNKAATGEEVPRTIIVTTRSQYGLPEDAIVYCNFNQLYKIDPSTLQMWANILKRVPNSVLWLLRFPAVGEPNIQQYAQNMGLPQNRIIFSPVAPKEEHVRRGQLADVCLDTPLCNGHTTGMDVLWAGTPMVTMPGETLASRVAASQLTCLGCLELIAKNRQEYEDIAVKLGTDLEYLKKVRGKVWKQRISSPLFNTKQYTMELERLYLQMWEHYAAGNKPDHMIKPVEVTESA

[3] = molecular target: UBAP2L (ubiquitin-associated protein 2-like), endogenous in ccRCC cells (human (endogenous in 786-O and Caki-1)) (UniProt Q14157); experiment: as above
[4] = molecular target: T3, HA-tagged OGT C-terminal sequence (amino acids 801-1046) (UniProt O15294); experiment: co-IP; HEK293T cells co-transfected with Flag-UBAP2L and HA-OGT (full length or deletion mutants); IP with anti-HA or anti-Flag, immunoblot; RIPA buffer, 4 °C
T3 sequence: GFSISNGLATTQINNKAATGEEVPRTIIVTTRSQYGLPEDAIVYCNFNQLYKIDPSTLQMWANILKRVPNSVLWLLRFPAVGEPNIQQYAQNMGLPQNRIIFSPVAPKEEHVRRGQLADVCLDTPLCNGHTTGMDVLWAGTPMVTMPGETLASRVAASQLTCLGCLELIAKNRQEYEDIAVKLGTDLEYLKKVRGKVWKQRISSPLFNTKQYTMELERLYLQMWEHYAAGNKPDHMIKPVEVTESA

[5] = molecular target: T4, HA-tagged FL OGT (O-GlcNAc transferase), expressed in HEK293T cells (UniProt O15294); experiment: as above
T4 sequence: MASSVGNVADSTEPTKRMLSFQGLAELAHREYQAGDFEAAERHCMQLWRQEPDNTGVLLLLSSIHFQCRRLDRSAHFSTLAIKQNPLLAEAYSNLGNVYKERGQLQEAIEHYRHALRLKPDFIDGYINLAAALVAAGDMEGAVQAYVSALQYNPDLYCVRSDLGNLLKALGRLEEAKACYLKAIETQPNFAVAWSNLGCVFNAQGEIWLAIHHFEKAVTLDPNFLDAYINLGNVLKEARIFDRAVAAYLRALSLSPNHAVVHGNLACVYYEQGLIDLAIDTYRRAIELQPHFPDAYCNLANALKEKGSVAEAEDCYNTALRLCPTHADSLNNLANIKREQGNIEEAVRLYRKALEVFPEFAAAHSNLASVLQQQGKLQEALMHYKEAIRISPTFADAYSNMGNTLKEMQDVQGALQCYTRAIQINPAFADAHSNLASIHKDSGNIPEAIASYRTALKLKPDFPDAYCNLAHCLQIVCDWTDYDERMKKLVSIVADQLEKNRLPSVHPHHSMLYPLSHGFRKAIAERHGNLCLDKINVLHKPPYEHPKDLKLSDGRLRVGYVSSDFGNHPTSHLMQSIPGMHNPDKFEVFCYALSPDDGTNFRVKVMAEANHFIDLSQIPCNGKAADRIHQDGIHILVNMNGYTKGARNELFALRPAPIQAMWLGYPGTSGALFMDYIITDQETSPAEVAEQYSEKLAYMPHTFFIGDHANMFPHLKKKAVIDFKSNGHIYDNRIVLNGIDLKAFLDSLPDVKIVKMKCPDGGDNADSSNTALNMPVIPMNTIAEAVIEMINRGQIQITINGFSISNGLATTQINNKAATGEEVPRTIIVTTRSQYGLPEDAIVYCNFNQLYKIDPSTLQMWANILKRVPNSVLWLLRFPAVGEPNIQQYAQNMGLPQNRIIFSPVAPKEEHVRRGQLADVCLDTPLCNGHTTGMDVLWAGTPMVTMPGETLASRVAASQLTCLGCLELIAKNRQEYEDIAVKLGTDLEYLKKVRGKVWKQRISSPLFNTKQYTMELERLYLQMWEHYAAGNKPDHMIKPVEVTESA

[6] = molecular target: Flag-tagged FL UBAP2L, expressed in HEK293T cells (UniProt Q14157); experiment: as above
[7] = molecular target: Flag-tagged UBAP2L N-terminal sequence (amino acids 1-100) (UniProt Q14157); experiment: as above
[8] = molecular target: UBAP2L (ubiquitin-associated protein 2-like), endogenous in ccRCC cells (human (endogenous in 786-O and Caki-1)) (UniProt Q14157); experiment: co-IP; endogenous proteins in lysates of ccRCC cells (786-O, Caki-1); IP with specific antibodies or IgG control, immunoblot; for TRIM37-UBAP2L also cells with shCtrl, shOGT or shOGA; remark: listed apart in the source

binding [1]: binds
Molecule: UBAP2L in the cell lysate of the GST pull-down (from UniProt Q14157 1-1087)

binding [2]: binds
Molecule: UBAP2L (ubiquitin-associated protein 2-like), endogenous in ccRCC cells (from UniProt Q14157 1-1087)

binding [3]: binds
Molecule: TRIM37, endogenous in ccRCC cells (from UniProt O94972 1-964) (enzyme)

binding [4]: binds | binding [5]: binds
Molecule: Flag-tagged FL UBAP2L, expressed in HEK293T cells (from UniProt Q14157 1-1087)

binding [6]: binds | binding [7]: binds
B1: HA-tagged FL OGT (O-GlcNAc transferase), expressed in HEK293T cells (enzyme, UniProt O15294 1-1046)
chain: MASSVGNVADSTEPTKRMLSFQGLAELAHREYQAGDFEAAERHCMQLWRQEPDNTGVLLLLSSIHFQCRRLDRSAHFSTLAIKQNPLLAEAYSNLGNVYKERGQLQEAIEHYRHALRLKPDFIDGYINLAAALVAAGDMEGAVQAYVSALQYNPDLYCVRSDLGNLLKALGRLEEAKACYLKAIETQPNFAVAWSNLGCVFNAQGEIWLAIHHFEKAVTLDPNFLDAYINLGNVLKEARIFDRAVAAYLRALSLSPNHAVVHGNLACVYYEQGLIDLAIDTYRRAIELQPHFPDAYCNLANALKEKGSVAEAEDCYNTALRLCPTHADSLNNLANIKREQGNIEEAVRLYRKALEVFPEFAAAHSNLASVLQQQGKLQEALMHYKEAIRISPTFADAYSNMGNTLKEMQDVQGALQCYTRAIQINPAFADAHSNLASIHKDSGNIPEAIASYRTALKLKPDFPDAYCNLAHCLQIVCDWTDYDERMKKLVSIVADQLEKNRLPSVHPHHSMLYPLSHGFRKAIAERHGNLCLDKINVLHKPPYEHPKDLKLSDGRLRVGYVSSDFGNHPTSHLMQSIPGMHNPDKFEVFCYALSPDDGTNFRVKVMAEANHFIDLSQIPCNGKAADRIHQDGIHILVNMNGYTKGARNELFALRPAPIQAMWLGYPGTSGALFMDYIITDQETSPAEVAEQYSEKLAYMPHTFFIGDHANMFPHLKKKAVIDFKSNGHIYDNRIVLNGIDLKAFLDSLPDVKIVKMKCPDGGDNADSSNTALNMPVIPMNTIAEAVIEMINRGQIQITINGFSISNGLATTQINNKAATGEEVPRTIIVTTRSQYGLPEDAIVYCNFNQLYKIDPSTLQMWANILKRVPNSVLWLLRFPAVGEPNIQQYAQNMGLPQNRIIFSPVAPKEEHVRRGQLADVCLDTPLCNGHTTGMDVLWAGTPMVTMPGETLASRVAASQLTCLGCLELIAKNRQEYEDIAVKLGTDLEYLKKVRGKVWKQRISSPLFNTKQYTMELERLYLQMWEHYAAGNKPDHMIKPVEVTESA

binding [8]: binds
B2: OGT (O-GlcNAc transferase), endogenous in ccRCC cells (enzyme, UniProt O15294 1-1046)
chain: MASSVGNVADSTEPTKRMLSFQGLAELAHREYQAGDFEAAERHCMQLWRQEPDNTGVLLLLSSIHFQCRRLDRSAHFSTLAIKQNPLLAEAYSNLGNVYKERGQLQEAIEHYRHALRLKPDFIDGYINLAAALVAAGDMEGAVQAYVSALQYNPDLYCVRSDLGNLLKALGRLEEAKACYLKAIETQPNFAVAWSNLGCVFNAQGEIWLAIHHFEKAVTLDPNFLDAYINLGNVLKEARIFDRAVAAYLRALSLSPNHAVVHGNLACVYYEQGLIDLAIDTYRRAIELQPHFPDAYCNLANALKEKGSVAEAEDCYNTALRLCPTHADSLNNLANIKREQGNIEEAVRLYRKALEVFPEFAAAHSNLASVLQQQGKLQEALMHYKEAIRISPTFADAYSNMGNTLKEMQDVQGALQCYTRAIQINPAFADAHSNLASIHKDSGNIPEAIASYRTALKLKPDFPDAYCNLAHCLQIVCDWTDYDERMKKLVSIVADQLEKNRLPSVHPHHSMLYPLSHGFRKAIAERHGNLCLDKINVLHKPPYEHPKDLKLSDGRLRVGYVSSDFGNHPTSHLMQSIPGMHNPDKFEVFCYALSPDDGTNFRVKVMAEANHFIDLSQIPCNGKAADRIHQDGIHILVNMNGYTKGARNELFALRPAPIQAMWLGYPGTSGALFMDYIITDQETSPAEVAEQYSEKLAYMPHTFFIGDHANMFPHLKKKAVIDFKSNGHIYDNRIVLNGIDLKAFLDSLPDVKIVKMKCPDGGDNADSSNTALNMPVIPMNTIAEAVIEMINRGQIQITINGFSISNGLATTQINNKAATGEEVPRTIIVTTRSQYGLPEDAIVYCNFNQLYKIDPSTLQMWANILKRVPNSVLWLLRFPAVGEPNIQQYAQNMGLPQNRIIFSPVAPKEEHVRRGQLADVCLDTPLCNGHTTGMDVLWAGTPMVTMPGETLASRVAASQLTCLGCLELIAKNRQEYEDIAVKLGTDLEYLKKVRGKVWKQRISSPLFNTKQYTMELERLYLQMWEHYAAGNKPDHMIKPVEVTESA
